PubChem BioAssay AID493014 (National Center for Advancing Translational Sciences (NCATS), 2011)
The list shows a part of the results. Further columns of the screen follow, without active or inactive calls. The list favours compounds with an active or inconclusive main result. Words in brackets tell the shape of the fitted curve; partial curves, single points and poor fits give uncertain potencies.

Experiment: qHTS Assay to Find Inhibitors of Chronic Active B-Cell Receptor Signaling
Details: ABC-DLBCL IkBa-CBG/CBR reporter, luminescence ratio (green luciferase fused to IkBa over red control in TMD8 lymphoma cells), 4 h
Summary of the method: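 Concentration-response series (up to 46 uM) were applied to TMD8 dual-reporter cells for 4 h at 37C with doxycycline. Green/red ratio, after filter-overlap correction, defined %Activity; red signal alone was normalised to basal cells and zero luminescence.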

[1] = measured here: CBR red luminescence, cell number
[2] = measured here: IkBa-CBG green luminescence

| SMILES | AC50 [1] | AC50 [2] |
| --- | --- | --- |
| O=C(/C=C/c1ccncc1)c1ccc(NC(=O)c2ccccc2F)cc1 | 25.9 µM [falling, partial curve, poor fit] | 32.6 µM [falling, partial curve, poor fit] |
| O=C(COC(=O)Cc1ccccc1F)NCCc1ccccc1 | 6.51 µM [rising, single point] |  |
| CC(=O)Nc1nc2ccccc2n1CCOc1ccccc1Cl | 20.6 µM [rising, partial curve, poor fit] |  |
| CCC1(C)Cc2ccccc2-c2nc(NN)[nH]c(=O)c21 (stereo unspecified) | 11.2 µM [falling, partial curve, poor fit] |  |
| CCOC(=O)c1c(NC(=O)C2C3C=CC(C3)C2C(=O)O)sc2c1CC(C)(C)OC2 (stereo unspecified) | 5.01 µM [rising, full curve, poor fit] |  |
| O=C(NCc1ccccc1Cl)c1cnc2n(c1=O)CCS2 | 6.51 µM [rising, single point] |  |
| COc1ccc(O)c(/C=N/NC(=S)Nc2cccc(S(=O)(=O)N(C)C)c2)c1 | 13 µM [falling, partial curve, poor fit] |  |
| COc1cc(C(=O)Nc2cc(Cl)ccc2-n2cncn2)ccc1OC(F)F | 6.51 µM [rising, partial curve, poor fit] |  |
| COc1ccc(CCNC(=O)c2ccc3c(=O)n4c(nc3c2)CCC4)cc1OC | 0.366 µM [rising, partial curve, poor fit] |  |
| CN(C)c1c(-c2ccccc2)cc(-c2ccccc2)[nH]c1=O | 10 µM [falling, partial curve, poor fit] |  |
| O=C(Nc1nc(-c2ccccn2)cs1)c1cc2ccccc2o1 | 11.2 µM [falling, single point] |  |
| CCCCCC(C)NC(=S)NC(=O)c1cc(S(=O)(=O)N2CCOCC2)ccc1C (stereo unspecified) | 29.1 µM [falling, single point] |  |
| O=C(O)c1ccccc1C(=O)Nc1ccc(-c2csc(-c3ccccc3)n2)cc1 | 1.84 µM [rising, partial curve] |  |
| CC(=O)c1ccc(Oc2ncnc(N)c2[N+](=O)[O-])cc1 | 11.2 µM [falling, partial curve, poor fit] |  |
| CCN(CC)S(=O)(=O)c1ccc(N/N=C(\C)c2ccc(OC)cc2O)nc1 | 35.5 µM [rising, single point] | 3.98 µM [falling, full curve, poor fit] |
| O=C(Nc1nc2ccccc2s1)C1CC(=O)N(c2ccc(Br)cc2)C1 (stereo unspecified) | 32.6 µM [falling, single point] |  |
| COc1ccccc1C(=O)NCC(=O)NC(C)CCc1ccccc1 (stereo unspecified) | 35.5 µM [falling, single point] |  |
| O=[N+]([O-])c1ccc(/C=N/Nc2ccccn2)cc1 | 1.26 µM [rising, full curve, poor fit] |  |
| Cc1ccnc(NC(=O)CCC2CCCCC2)c1 | 0.164 µM [rising, partial curve, poor fit] |  |
| CCOC(=O)C1CCN(C(=O)C2CC(=O)N(c3ccc(C)cc3)C2)CC1 (stereo unspecified) | 7.31 µM [falling, single point] |  |
| Clc1cccc(-n2cc(-c3ccccc3)c3c(N4CCCCC4)ncnc32)c1 | 17.8 µM [rising, single point] |  |

| SMILES | AC50 [1] | AC50 [2] |
| --- | --- | --- |
| O=C1/C(=C/c2cccnc2)SC(=S)N1c1ccc(O)cc1 | 3.98 µM [falling, partial curve, poor fit] |  |
| CCc1ccc(-c2csc(NC(=O)Oc3ccccc3)n2)cc1 | 1.16 µM [rising, full curve, poor fit] |  |
| CC1(C)CC(=O)c2c(nn(-c3ccccc3)c2-c2ccncc2)C1 | 0.058 µM [falling, full curve, poor fit] |  |
| O=C(c1ccc(S(=O)(=O)c2cccc(Cl)c2)c([N+](=O)[O-])c1)N1CCN(Cc2ccccc2)CC1 | 13 µM [falling, partial curve, poor fit] |  |
| COc1cccc(C(=O)NCCN2C(=O)S/C(=C/c3cccs3)C2=O)c1OC | 5.62 µM [falling, partial curve, poor fit] |  |
| N#C/C(=C\c1cccnc1)c1nc2c(s1)CCCC2 | 7.08 µM [rising, full curve, poor fit] |  |
| Cc1ccc(C(C)C)c(OCC(=O)Nc2ccccc2N2CCN(C)CC2)c1 | 35.5 µM [falling, single point] |  |
| Cc1cc(C(=O)N/N=C/C=C/c2ccccc2)c(C)o1 | 14.6 µM [falling, partial curve, poor fit] |  |
| CN1CCC(N(C)C(=O)c2ccccc2Nc2ccc(SC(F)F)cc2)CC1 | 6.31 µM [rising, single point] |  |
| CCCNC(=O)COc1ccc2c(=O)c(Oc3ccccc3F)coc2c1 | 3.66 µM [rising, partial curve, poor fit] |  |
| O=c1oc2ccccc2nc1/C=C(O)/C=C/c1ccc(F)cc1 | 5.17 µM [falling, partial curve, poor fit] |  |
| CC1=C(C(=O)OCc2ccccc2)C(c2ccccc2Cl)NC(=O)N1C (stereo unspecified) | 35.5 µM [falling, single point] |  |
| O=C(Nc1cccc(Cl)c1)OCc1cnc(Cl)s1 | 1.03 µM [rising, full curve, poor fit] |  |
| CCc1cc2cc3c(cc2nc1SCC(=O)N1CCN(C(=O)c2ccco2)CC1)OCO3 | 15.8 µM [falling, single point] |  |
| Cc1cccc(C)c1OCc1cc(C(=O)N2CCN(c3ccc(F)cc3)CC2)no1 | 3.55 µM [rising, partial curve, poor fit] |  |
| O=C(Cn1c(=O)cnc2ccccc21)N1CCN(S(=O)(=O)c2ccc(F)cc2)CC1 | 2.59 µM [rising, full curve, poor fit] |  |
| COc1ccccc1N1CCN(C(=O)c2cc(=O)c3cc(C)cc(C)c3o2)CC1 | 12.6 µM [rising, partial curve, poor fit] | 0.631 µM [falling, full curve, poor fit] |
| O=C(CCCN1C(=O)c2ccccc2C1=O)NCc1ccco1 | 0.517 µM [rising, partial curve] |  |
| CN(C)c1ccc(N2C(=O)CC(Sc3ccccc3C(=O)O)C2=O)cc1 (stereo unspecified) | 29.1 µM [falling, single point] |  |
| CCN1CCC(=NNC(=O)CC23CC4CC(CC(C4)C2)C3)CC1 | 35.5 µM [falling, single point] |  |
| CC1=C(C(=O)Nc2ccccn2)C(c2ccc(Cl)cc2)NC(=S)N1 (stereo unspecified) | 35.5 µM [falling, single point] |  |

| SMILES | AC50 [1] | AC50 [2] |
| --- | --- | --- |
| O=C1[C@@H]2CSCN2C(=O)CN1CCc1cccc(F)c1 | 11.2 µM [rising, partial curve] |  |
| O=C(COc1ccc(-c2ccccc2)cc1)Nc1cccnc1 | 2.06 µM [rising, partial curve] |  |
| Cc1cc(C)nc(Nc2n[nH]c(-c3ccccc3Cl)n2)n1 | 3.98 µM [falling, partial curve, poor fit] |  |
| COc1ccc(OC)c(/C=N/NC(=O)C(=O)NCc2cccnc2)c1 | 15.8 µM [rising, single point] |  |
| CC(C)N(C(=O)[C@H]1C[C@H](CC(=O)NCc2ccco2)C(=O)N2CCc3c([nH]c4ccc(Cl)cc34)[C@]12C)C(C)C | 20.6 µM [falling, single point] |  |
| COc1ccc(C2=CC(=O)C[C@H](c3ccc(F)cc3)C2)c(F)c1F | 4.61 µM [rising, partial curve] |  |
| CC(C)(C)n1ncc2c(=O)n(CC(=O)N3CCCc4ccccc43)cnc21 | 35.5 µM [falling, single point] |  |
| COC(=O)c1ccc(Nc2cc(C)nc(-c3ccccc3O)n2)cc1 | 0.326 µM [falling, full curve] |  |
| CN(C)/C=C/C(=O)c1cnc(-c2ccccn2)s1 | 35.5 µM [falling, single point] |  |
| CC(=O)NC12CC3CC(C1)CC(C(=O)Nc1nc4c(C)cccc4s1)(C3)C2 | 7.08 µM [falling, full curve] |  |
| CC(C)C(=O)c1cc2c(cc1NC(=O)Nc1cccc3ccccc13)OCCO2 | 29.1 µM [falling, single point] |  |
| CCOC(=O)c1cnn(CCOC(=O)c2ccc(OC)cc2)c1NC(=O)c1ccc(OC)cc1 | 13 µM [rising, partial curve, poor fit] |  |
| O=C(CN1C(=O)CCC1=O)Nc1ccc(Br)cc1 | 8.91 µM [falling, partial curve] |  |
| C/C(CC(=O)NCc1ccc(Cl)cc1)=N\NC(=O)COc1ccc(C)cc1Br | 31.6 µM [rising, single point] | 25.1 µM [falling, single point] |
| COc1cccc(C(=O)O/N=C/c2ccc(Sc3ccc(C)cc3)nc2)c1 | 1.16 µM [rising, partial curve, poor fit] |  |
| CCC(=O)Nc1cnc(NC(=O)c2cccc(F)c2)cc1C | 23.1 µM [falling, single point] |  |
| CC(C)NC(=O)N1CCOCCOCCN(C(=O)NC(C)C)CCOCCOCC1 | 6.51 µM [falling, single point] |  |
| CCn1c(COc2ccccc2OC)nc2ccccc21 | 3.98 µM [rising, partial curve, poor fit] |  |
| Cc1cc(-c2ccccc2)nc(N/N=C/c2ccccc2)n1 | 10 µM [falling, partial curve] |  |
| N#Cc1c(-n2cccc2)cccc1-n1cccc1 | 11.2 µM [rising, partial curve] |  |

Taken from above:
In AC50 [1], O=C(c1ccc(S(=O)(=O)c2cccc(Cl)c2)c([N+](=O)[O-])c1)N1CCN(Cc2ccccc2)CC1 reads 13 µM [falling, partial curve, poor fit]
In AC50 [1], COc1cccc(C(=O)NCCN2C(=O)S/C(=C/c3cccs3)C2=O)c1OC reads 5.62 µM [falling, partial curve, poor fit]
In AC50 [1], O=C(COc1ccc(-c2ccccc2)cc1)Nc1cccnc1 reads 2.06 µM [rising, partial curve]
